PubChem BioAssay AID248 (DTP/NCI, 2004)
The list does not hold the whole screen: it gathers tests that were run many times, whatever their T/C, doses with no T/C, and many T/C values between a quarter and a half above the control. Other doses and runs of a compound stand elsewhere. T/C: endpoint of the treated group in % of that of the vehicle group. Some entries give survivors of the animals treated and no T/C: the source files T/C as zero there, which appears to mark a toxic dose or a test without result, not a measured value. Some survivor counts are full or nearly so, which does not show that the dose was tolerated: the source hardly ever lists a survival T/C far under the control, and the zero likely stands for such cases as well. Survivors were counted at the toxicity check, usually on the fifth day, unless a day is given; later deaths do not show. Schedule codes are those of the source, read here as Q, the interval in days (D) or hours (H), X, the number of doses. Some molecules as drawn cover several salts, stereoisomers or complexes of the source; a dose is that of the sample tested. Some entries were tested several times; their values stand side by side, smallest first. Where survival is the endpoint, the PubChem record calls one and a half times the control and up active, and a quarter to a half above the control has no call in these data; cut-offs in other NCI protocols can differ. Some T/C values carry the count of animals alive at the toxicity check (mostly the fifth day); where none is given, no animal had died by that day.

Tested on: L1210 leukemia ip in BDF1 mice, survival T/C
Experiment: NCI In Vivo Anticancer Drug Screen. Data for tumor model L1210 Leukemia (intraperitoneal) in B6D2F1 (BDF1) mice
Settings: T/C endpoint: mean survival time, higher T/C = longer survival
[1] = dose: 400.0 mg/kg/injection, schedule: Q01DX001 (ip), vehicle: saline
[2] = dose: 400.0 mg/kg/injection, schedule: Q01DX009 (ip), vehicle: saline with Tween-80
[3] = dose: 200.0 mg/kg/injection, schedule: Q01DX009 (ip), vehicle: Klucel (hydroxypropylcellulose) (HPC)
[4] = dose: 100.0 mg/kg/injection, schedule: Q04DX002 (ip), vehicle: saline
[5] = dose: 200.0 mg/kg/injection, schedule: Q04DX002 (ip), vehicle: saline
[6] = dose: 400.0 mg/kg/injection, schedule: Q04DX002 (ip), vehicle: saline
[7] = dose: 400.0 mg/kg/injection, schedule: Q01DX001 (ip), vehicle: carboxymethylcellulose (CMC)
[8] = dose: 400.0 mg/kg/injection, schedule: Q04DX003 (ip), vehicle: Klucel (hydroxypropylcellulose) (HPC)
[9] = dose: 400.0 mg/kg/injection, schedule: Q04DX003 (ip), vehicle: saline with Tween-80

Structure (SMILES): CCS(=O)(=O)Nc1cccc(Nc2c3cccc(C)c3nc3c(C)cccc23)c1OC
- T/C (dose: 6.25 mg/kg/injection, schedule: Q01DX009 (ip), vehicle: saline with Tween-80): 141 % of control
- T/C (dose: 8.2 mg/kg/injection, schedule: Q01DX009 (ip), vehicle: saline): 125 % of control
- T/C (dose: 25.0 mg/kg/injection, schedule: Q04DX003 (ip), vehicle: saline): 142 % of control
- T/C (dose: 50.0 mg/kg/injection, schedule: Q01DX009 (sc), vehicle: Klucel (hydroxypropylcellulose) (HPC)): 130 % of control
- survivor count (dose: 100.0 mg/kg/injection, schedule: Q01DX009 (ip), vehicle: saline with Tween-80): 6 of 6
- T/C (dose: 100.0 mg/kg/injection, schedule: Q01DX009 (sc), vehicle: Klucel (hydroxypropylcellulose) (HPC)): 137 % of control
- survivor count (dose: 200.0 mg/kg/injection, schedule: Q04DX003 (ip), vehicle: saline): 9 of 10

Structure (SMILES): COc1cc(C(=O)COC(C)=O)cc2c1OC(c1ccccc1)(c1ccccc1)O2
- survivor count (dose: 100.0 mg/kg/injection, schedule: Q01DX001 (ip), vehicle: saline): 4 of 4
- survivor count [1]: 4 of 4

Structure (SMILES): CC1CCCCN1Cc1ccccc1COC(=O)c1cccc(Cl)c1 (configuration not stated)
- survivor count (dose: 25.0 mg/kg/injection, schedule: Q04DX002 (ip), vehicle: saline with Tween-80): 3 of 3
- survivor count (dose: 100.0 mg/kg/injection, schedule: Q04DX002 (ip), vehicle: saline with Tween-80): 3 of 3
- survivor count (dose: 200.0 mg/kg/injection, schedule: Q04DX002 (ip), vehicle: saline with Tween-80): 1 of 3
- survivor count (dose: 400.0 mg/kg/injection, schedule: Q04DX002 (ip), vehicle: saline with Tween-80): 0 of 3

Structure (SMILES): OCc1cc2ccccc2cc1F
- survivor count (dose: 400.0 mg/kg/injection, schedule: Q04DX003 (ip), vehicle: acetone): 2 of 6

Structure (SMILES): CCOC(=O)C1=C(O)c2c(sc(C)c2C)N(S(=O)(=O)c2ccc(C)cc2)CC1
- survivor count [2]: 6 of 6

Structure (SMILES): N#CCCC1CCCCC1=O (configuration not stated)
- survivor count [2]: 3 of 6

Structure (SMILES): [Cu+2].[O-]c1ccc(Br)c2cccnc12.[O-]c1ccc(Br)c2cccnc12
- survivor count (dose: 100.0 mg/kg/injection, schedule: Q01DX001 (ip), vehicle: carboxymethylcellulose (CMC)): 0 of 4
- survivor count (dose: 200.0 mg/kg/injection, schedule: Q01DX001 (ip), vehicle: carboxymethylcellulose (CMC)): 0 of 4

Structure (SMILES): O=C(CNC(=O)OCc1ccccc1)NCC(=O)NC(Cc1ccccc1)C(=O)CCl (configuration not stated)
- survivor count (dose: 100.0 mg/kg/injection, schedule: Q01DX001 (ip), vehicle: Klucel (hydroxypropylcellulose) (HPC)): 1 of 6
- survivor count (dose: 200.0 mg/kg/injection, schedule: Q01DX001 (ip), vehicle: Klucel (hydroxypropylcellulose) (HPC)): 0 of 6
- survivor count (dose: 400.0 mg/kg/injection, schedule: Q01DX001 (ip), vehicle: Klucel (hydroxypropylcellulose) (HPC)): 0 of 6

Structure (SMILES): CNc1nc2nc[nH]c2c(=S)n1C
- survivor count [1]: 0 of 6

Structure (SMILES): O=C1c2ccccc2C(=O)C(Cl)C1Cl (configuration not stated)
- survivor count (dose: 12.5 mg/kg/injection, schedule: Q04DX003 (ip), vehicle: other): 0 of 6
- survivor count (dose: 25.0 mg/kg/injection, schedule: Q04DX003 (ip), vehicle: other): 0 of 6
- survivor count (dose: 100.0 mg/kg/injection, schedule: Q04DX003 (ip), vehicle: other): 0 of 6
- survivor count (dose: 200.0 mg/kg/injection, schedule: Q04DX003 (ip), vehicle: other): 0 of 6
- survivor count (dose: 400.0 mg/kg/injection, schedule: Q04DX003 (ip), vehicle: other): 0 of 6

Structure (SMILES): c1ccc(-c2nn(-c3ccccc3)[n+](-c3ccccc3-c3ccccc3)n2)cc1
- survivor count (dose: 32.0 mg/kg/injection, schedule: Q01DX015 (ip), vehicle: carboxymethylcellulose (CMC)): 3 of 6

Structure (SMILES): COc1cc2c(cc1OC)C1CC(=O)C(CC(C)C)CN1CC2 (configuration not stated)
- survivor count [3]: 4 of 6
- survivor count (dose: 400.0 mg/kg/injection, schedule: Q01DX009 (ip), vehicle: Klucel (hydroxypropylcellulose) (HPC)): 2 of 6

Structure (SMILES): COC(=O)CC(=O)C=P(c1ccccc1)(c1ccccc1)c1ccccc1
- survivor count (dose: 200.0 mg/kg/injection, schedule: Q01DX009 (ip), vehicle: saline with Tween-80): 1 of 6
- survivor count [2]: 0 of 6

Structure (SMILES): COc1cc(N2CCOCC2)ccc1N
- survivor count (dose: 100.0 mg/kg/injection, schedule: Q01DX009 (ip), vehicle: saline): 5 of 6

Structure (SMILES): CCCCCCSC(=N)N
- survivor count [4]: 0 of 3 and 1 of 6
- survivor count [5]: 0 of 3 and 1 of 6
- survivor count [6]: 0 of 3 and 0 of 6

Structure (SMILES): NC(=O)c1[nH]c(CCCc2ccccc2)nc1N
- survivor count (dose: 400.0 mg/kg/injection, schedule: Q01DX001 (ip), vehicle: saline with Tween-80): 0 of 6

Structure (SMILES): O=C(NOCc1cc2c(cc1Cl)OCO2)c1ccc(S(=O)(=O)F)cc1
- survivor count (dose: 200.0 mg/kg/injection, schedule: Q04DX003 (ip), vehicle: saline sonified): 6 of 6
- survivor count (dose: 400.0 mg/kg/injection, schedule: Q04DX003 (ip), vehicle: saline sonified): 6 of 6

Structure (SMILES): CCCC(=O)Nc1ccc(O)cc1
- T/C (dose: 600.0 mg/kg/injection, schedule: Q01DX009 (ip), vehicle: saline with Tween-80): 130 % of control [5 of 6 alive]

Structure (SMILES): S=C1NCCS1
- survivor count [7]: 1 of 4
- survivor count [8]: 3 of 6

Structure (SMILES): C/C(=N\NC(=O)c1ccc([N+](=O)[O-])cc1)c1ccccc1
- survivor count (dose: 50.0 mg/kg/injection, schedule: Q01DX001 (ip), vehicle: carboxymethylcellulose (CMC)): 3 of 4
- survivor count [7]: 1 of 4

Structure (SMILES): NCCNCCN1CC1
- survivor count [4]: 0 of 3
- survivor count [5]: 0 of 3
- survivor count [6]: 0 of 3

Structure (SMILES): CN(Cc1cnc2nc(NCNC(=O)C3=C(O)[C@@]4(O)C(=O)C5=C(O)c6c(O)cccc6[C@@](C)(O)[C@H]5C[C@H]4[C@H](N(C)C)C3=O)nc(N)c2n1)c1ccc(C(=O)NC(CCC(=O)O)C(=O)O)cc1 (some centres not stated)
- survivor count (dose: 48.0 mg/kg/injection, schedule: Q01DX015 (ip), vehicle: saline): 6 of 6

Structure (SMILES): Cc1ccc2nc(-c3ccc(N)cc3)sc2c1
- survivor count [2]: 0 of 6

Structure (SMILES): CC(C)c1ccc2ccccc2c1
- survivor count [2]: 6 of 6

Structure (SMILES): O=C(CCl)Nc1ccccc1
- survivor count (dose: 400.0 mg/kg/injection, schedule: Q04DX002 (ip), vehicle: Klucel (hydroxypropylcellulose) (HPC)): 1 of 3

Structure (SMILES): CC(Cc1ccc2c(c1)OCO2)[N+](=O)[O-] (configuration not stated)
- survivor count (dose: 75.0 mg/kg/injection, schedule: Q04DX003 (ip), vehicle: saline with Tween-80): 1 of 6

Structure (SMILES): NC(=O)NN=C(CS)CS
- survivor count (dose: 64.0 mg/kg/injection, schedule: Q01DX015 (ip), vehicle: carboxymethylcellulose (CMC)): 1 of 6
- survivor count (dose: 100.0 mg/kg/injection, schedule: Q01DX001 (ip), vehicle: other): 3 of 6
- survivor count (dose: 200.0 mg/kg/injection, schedule: Q01DX001 (ip), vehicle: other): 0 of 6
- survivor count (dose: 400.0 mg/kg/injection, schedule: Q01DX001 (ip), vehicle: other): 0 of 6

Structure (SMILES): CCOc1ccc(NC(=O)Nc2ccccc2Cl)cc1
- survivor count (dose: 50.0 mg/kg/injection, schedule: Q01DX009 (ip), vehicle: gum acacia): 6 of 6
- survivor count (dose: 100.0 mg/kg/injection, schedule: Q01DX009 (ip), vehicle: gum acacia): 6 of 6
- survivor count (dose: 100.0 mg/kg/injection, schedule: Q04DX003 (ip), vehicle: gum acacia): 6 of 6
- survivor count (dose: 400.0 mg/kg/injection, schedule: Q01DX009 (ip), vehicle: gum acacia): 6 of 6

Structure (SMILES): COC(=O)c1ccc2c(ccc[n+]2C)c1
- survivor count (dose: 300.0 mg/kg/injection, schedule: Q01DX001 (ip), vehicle: saline): 0 of 6

Structure (SMILES): COC(=O)C(=C(c1ccccc1)c1ccccc1)c1ccccc1
- survivor count [9]: 2 of 3

Structure (SMILES): C=CC1CN2CCC1CC2C(O)c1ccnc2ccc(OC)cc12 (configuration not stated) (tested in a mixture with another compound)
- survivor count [3]: 2 of 6
- survivor count [8]: 1 of 6
- survivor count [9]: 6 of 6
- survivor count (dose: 400.0 mg/kg/injection, schedule: Q04DX003 (ip), vehicle: saline): 0 of 6

Structure (SMILES): O=NN(CCCl)C(=O)Nc1cccc2cccnc12
- T/C (dose: 5.0 mg/kg/injection, schedule: Q01DX001 (ip), vehicle: carboxymethylcellulose (CMC)): 142 % of control
